# Measurements as given in PMC10445734.
# B1: Rho-5 (protein, UniProt Q76NQ1 1-1429)
# chain: MSSNGSDLGHNNRRNEKGNPDSVHSSMRGSMSSTRRKSINFQNQLQLALESNECDVMYCSLSSGRFRAPNGENFPPHGGKLKLSPLEKYDDANRGVPPPSPAPNSDCFATCVANQLPSQSCSVGSAKPETSVMQKHGMAGNGMVGSGMSGNGMAANGTNYHQRGVSPNSRYRLERYRESQSTPQSKLMDNMGGMPSAVPSVSATRLLLPSNVPLPLAQCENYNAYLGSTVHTPVKRYVPTPPPAMELYSDLSISSSPAANLPTPAAAVASSASTSASAMQSQYANMPYNYRSKCCHSEASHGSLSRTSQTYASCSPACTSPSPAPSTSMSMVFSAASSCSPIMTATSSARSGNHRGDDSDSVIVVPPGGGAMAQIEAENPSGTCLHCNTVRRTTGVHQTTQTTGPISPVPISLPVPMAMPVMSGLNEQMPSQSLESSMVSVQAKRLEGGGNMAVPPGSNQHQLYRSQMASNPRLQHIHHQTQQHQSLQVLPQPQNHHLSCKKRIGMYMRRTTSQFFGVEPSTEAADCALWQGRHRRLAIRCFGMFDTELEYHMQQAIGGGNEDAGQSNGTNGNYAPDRPDILPVQDAIGMDMTMSGDSRRQKCYTNRDFLAGEFVERKASVGYMFVAMVSYLVHMFNKRRPIQMHRVRCPWQWSRSFAPIHVQSHSNQQTDADGCLTDGLEAIIDDEVFFDSPCEITTSAVNDESSDIGRQAAKPRPCADQSGVGVSVYMAERQQNGWRTSALNSGGNATSDINLTGDQSSHQPGAAHIPLCSSVSSQMQPAMRSSHSTTSTCNRGNRITAQLLDGVLENSRRPPLRCIKYFSVNDLDDRTDHRPFFTYWINTVQVVVLILSIICYGIAPIGIGSEQKTGQVLVTSLSLQTVQHVEQRNLWIGPRNIDLVHMGAKFAACMRRDIKITEVVTKTRRHERETACCIRNDDSGCVQSSQAECSIRGLYPTKSISTWKKWSPSESGPGGRISGSVCGLDPKFCDAPASIAPYEWPDDITKWPICRKTNSFTQRYRYKDHTSEHMVCEVIGHPCCTGLYGECRITTREYCDFIKGYFHEEASLCSQISCLNNVCGMFPFISVETPDQLYRLLTSLCMHAGILHLAITLIFQHLFLADLERLIGTVRTAIVYIMSGFAGNLTSAILVPHRPEVGPSASLSGVVASLIALLVWMHWKYLHKPHIALFKLLLLCSVLVGIGTLPYQLNFLGLLAGVICGCLLTMSLVPFTTFSKYGRKKKINLIWTCVLFHVVVYTAMIVTFYIHPSEFHSISFVDMFSNSNGYDNFTNADHHGVDVVSSNTRYSQTQNSQYYYHHHSDDIIRKSVTFTEKALVSHILYPTAPRKTSAQQWQEVEYSRSFNHLSNYSDRIKKSIGNISKLKQVFTSPIRFSNKNNHSNLMTELTSVHSENKQKYLGYINNNTEFNVL
# B2: Prosalpha2 (protein, UniProt P40301 1-234)
# chain: MATERYSFSLTTFSPSGKLVQLEYALAAVSGGAPSVGIIASNGVVIATENKHKSPLYEQHSVHRVEMIYNHIGMVYSGMGPDYRLLVKQARKIAQTYYLTYKEPIPVSQLVQRVATLMQEYTQSGGVRPFGVSLLICGWDNDRPYLYQSDPSGAYFAWKATAMGKNAVNGKTFLEKRYSEDLELDDAVHTAILTLKEGFEGKMTADNIEIGICDQNGFQRLDPASIKDYLASIP
# B3: Falafel (protein, UniProt Q9VFS5 1-980)
# chain: MTTDTRRRVKLYALNAERQWDDRGTGHVSSTYVERLKGISLLVRAESDGSLLLESKIQPDTAYQKQQDTLIVWSEGDNFDLALSFQEKAGCDEIWEKICQVQGKDPSVEITQDIVEESEDERFEDMSDTAPPIELPPCELSRLEDISETIQSCLSTPLRKEKLSMALESESYIKKLLNLFHVCEDLDNTEGLHHLFEIFKNIFLLNKNALFEIMFADDTIFDVVGCLEYDPSVSQPKKHRQYLKQLAKFREAVPIKNLDLLAKIHQTFRVQYIQDIILPTPSVFVEDNMLNTLSSFIFFNKVEIVTMIQDDERYLLDVFAVLTDPTTGDAKRRDTVLFLKEFCNYAQNLQPQGKDSFYKTLTCLGILQALELTLVMNDKKTKSASIDILTAIVEFSPLVVRNYTLNQANRPEVERMLLNIAIEQMLNDSEPELGIAVQLMGIVKILLEPENMLTEKGDFLNFFYKYSVQTLVAPVILNTIGDRPQNEDYQTAQLLGIVLDILSFCVEHHSYHIKNFLLQKDLLKRILVLMKSTHTFLVLGALRLLRKIIALKDEFYNRHIVKCNLFAPVVDAFIRNNGRYNLLESAILELFEFIKLEDIRTLCVYFVENFSKIFDEIEYVQTFKYLKNRYDQYQDRLKDRDKMENRTDGGLPIIRSGGRFRRDQRQMEEEEEMWFNEEDDFTEEIDTYNNVMKSVSEKNGPQTQNQQKSSPPHSTSPHSGLLGSLSTTASSTATSATSGAPVASGSSSPEAISADEQTQAAVHLAAAALQHHQQQQQQQQQNPFQQQTQPEIAELQQQLSSVEAPQSQELELSQSAAASASPTSSSSSLEASTSSSSASSSSSSSSSSSPPGSSAAASLCDSATVAAVAASQFLSTIATAMAASVTAAAATNSSPSISPAPAVSSPDIENADAQLPPSDDASSPASGEQDANSTEGTSSEADKTTAKKGLVDYESDSGEDDYEEDEYSEGPQAQKRARQA
# B4: CSN7 (protein, UniProt Q9V4S8 1-278)
# chain: MTQDMLLGNEEPSKSKETFLEKFCVLAKSSTGAALLDVIRQALEAPNVFVFGELLAEPSVLQLKDGPDSKHFETLNLFAYGTYKEYRAQPEKFIELTPAMQKKLQHLTIVSLAIKAKSIPYALLLSELEIDNVRHLEDIIIEAIYADIIHGKLFQNTRILEVDYAQGRDIPPGYTGQIVETLQAWVNSCDSVSNCIEMQIKYANAEKSKRLINKERVEQDLINLKKVLKSQTSDSDESMQIDTHGPGTSGGLGQSELRKKPSKLRNPRSAAVGLKFSK
# B5: CSN3 (protein, UniProt Q8SYG2 1-445)
# chain: MGSALENYVNQVRTLSASGSYRELAEELPESLSLLARNWSILDNVLETLDMQQHSLGVLYVLLAKLHSASTANPEPVQLIQLMRDFVQRNNNEQLRYAVCAFYETCHLFTEFVVQKNLSILGIRIISRAIDQIRQLETQLTPIHADLCLLSLKAKNFSVVLPYLDADITDISTVAAECKTQQQQQSQHADANNDAKYFLLYFYYGGMIYTAVKNYERALYFFEVCITTPAMAMSHIMLEAYKKFLMVSLIVEGKIAYIPKNTQVIGRFMKPMANHYHDLVNVYANSSSEELRIIILKYSEAFTRDNNMGLAKQVATSLYKRNIQRLTKTFLTLSLSDVASRVQLASAVEAERYILNMIKSGEIYASINQKDGMVLFKDDPEKYNSPEMFLNVQNNITHVLDQVRQINKMEEEIILNPMYVKKALGSQDDDLTSQHPKTFSGDPTD
# Target: N-terminally HA-tagged Fra (Frazzled), pan-neurally overexpressed (Drosophila)
# Assay: affinity purification with mass spectrometry; lysates of Drosophila embryos pan-neurally (elav-Gal4) overexpressing N-terminally HA-tagged Fra; anti-HA immunoprecipitation overnight at 4°C, protein A and G agarose beads, TBSV with 1% NP40; eluted with glycine pH 2.0; label-free LC-MS/MS; control embryos with elav-Gal4 alone
row,binding,Binder
1,binds,B1
2,binds,B2
3,binds,B3
4,binds,B4
5,binds,B5

# Results are given in words; binding and its absence hold for the method and conditions named. In cells and extracts the contact can be indirect. These calls come from enrichment with a bait or labelling near it, and not all partners need be listed.
